Experimental data: patent publication US20200352907A1, “Use Of Carbamate Compound For Preventing, Alleviating Or Treating Absence Seizure Or Epilepsy Showing Absence Seizure” (SK BIOPHARMACEUTICALS CO., LTD., priority 2017, published 2020)
At least one compound was matched to its structure with a doubt left.

What was measured:
[1] = system: GAERS (Genetic Absence Epilepsy Rat from Strasbourg) model; assay: Efficacy test in GAERS model rats: EEG analysis of spike-and-wave discharges (SWD); assay type: in vivo; settings: 20-minute intervals 10-90 min after administration; for number of occurrences of SWD: 2-way ANOVA vs vehicle
Experimental: Twelve 5-week-old GAERS model rats were purchased from the Grenoble Institute of Neurosciences, France. After purchase, the rats were bred at a temperature of 21±2° C. under conditions of free access to food and water, and controlled light (illuminated from 8 am to 8 pm), and the condition was maintained for 2 months prior to surgery.
EEG electrodes were implanted into twelve 3-month-old GAERS rats. Stereotaxic implantation was performed under anesthesia with isoflurane (2% concentration in oxygen). The rats were fixed to the stereotaxic frame and surgery was performed while observing body temperature. An ophthalmic gel was used to prevent drying of the cornea. After cutting the hair of the incision site, it was disinfected with povidone, and after incision, four holes were drilled using a drill at the frontal cortical and parietal cortical positions of both hemispheres of the open skull. Monopolar electrodes were placed in these holes and then connected to a female connector fixed to the skull for EEG recording. The incision site was then sutured. After surgery, buprenorphine was injected subcutaneously at a dose of 0.1 mg/kg, and the anesthetic was removed and observed until recovery of consciousness. After that, the rats were kept in a cage for recovery for a week.
One week after the electrode implantation, preliminary EEG measurements of 1 hour were performed on all 12 animals, and 10 animals showing enough signal-to-noise suitable for detecting generation of SWD were selected.
Test compound and positive control drug were prepared immediately before administration. Carbamic acid (R)-1-(2-chlorophenyl)-2-tetrazol-2-yl-ethyl ester prepared in the above preparation example was used as the test compound which was dissolved in 30% (volume/volume) PEG300 (81164-14, Sigma-Aldrich), and the positive control valproate (P4543, Sigma-Aldrich) was dissolved in 0.9% sterile saline (Cooper, France). Both drugs were administered intraperitoneally at a dose of 5 ml/kg. 30% PEG300 was used for vehicle administration as the negative control.
The test was done in a cross-over method, with a minimum interval of 71 hours between each administration for wash-out of the drug. […]
The generated SWD was analyzed using the recorded EEG data, and all data analysis was performed by blind method. SWD was analyzed for the 20-minute baseline phase and for a total of 80 minutes period from 10 to 90 minutes after drug administration. The 80 minutes were analyzed by dividing them into 20-minute intervals, and the number of occurrences of SWD and the cumulated SWD duration (the cumulated duration of SWD) were analyzed.
Results were expressed as mean value ±standard error, and prism (graphpad) was used for statistical analysis. […]

GAERS model rats = settings: known from literature; cited from earlier work

With `CCCC(CCC)C(=O)O` [valproate, reference compound] the “cumulated duration of SWD” value ([1]; valproate 150 mg/kg i.p., 2-way ANOVA) was “significant decrease in 10-30 min, 30-50 min and 50-70 min intervals after administration”, the “number of occurrences of SWD” value ([1]; valproate 150 mg/kg i.p.) was “statistically significant decrease in the number of occurrences of SWD compared to the vehicle administration group in the 10-30 min and 30-50 min intervals after administration” and the “cumulated duration of SWD” value ([1]; valproate 200 mg/kg i.p., 2-way ANOVA vs negative control) was “significant decrease compared to the negative control in the entire time period (between 10 and 90 minutes) after administration”. The “number of occurrences of SWD” value ([1]; valproate 200 mg/kg i.p.) was “significant decrease in the number of occurrences of SWD compared to the negative control in the entire time period (between 10 and 90 minutes) after administration” and the “SWD in the GAERS model rats” value (GAERS model rats) was “inhibited”.
